The structures appear in SMILES notation. Values joined by “and” are separate entries in the source; they are usually repeats but may differ in a detail not shown here. Equal entries are not always repeated. Some of the results follow. Single values are uncertain here, since repeats match poorly.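 HEK293T cells were given each compound shortly before transfection with a reporter in which red mCherry is followed by the SARS-CoV-2 frameshift element and then GFP in the −1 frame, so GFP appears only after frameshifting.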

This assay deals with HEK293T. Put plainly: percent viability (nuclei count) relative to control; higher = more viable cells. The settings on record: 10 µM; 24 h.
As for `Cc1cc(S(=O)(=O)O)c2c(C)ccc(C(C)C)cc1-2` [sodium gualenate], the percent viability is 140%.
As for `CCCCC(CC)CN=C(N)NC(N)=NCCCCCCN=C(N)NC(N)=NCC(CC)CCCC` (stereo not given), the figure is 217%.
With `Cc1ccc(S(=O)(=O)NC(=O)NN2CC3CCCC3C2)cc1` (stereo not given) [gliclazide] the figure was 257% and 256%; with `COc1ccc(-c2cc(=O)c3c(O)cc(O[C@@H]4O[C@H](CO[C@@H]5O[C@@H](C)[C@H](O)[C@@H](O)[C@H]5O)[C@@H](O)[C@H](O)[C@H]4O)cc3o2)cc1O` [diosmin], 188% and 271%; with `CCOC(=O)[C@H](CCc1ccccc1)N[C@H]1CCc2ccccc2N(CC(=O)O)C1=O`, 174%.
With `COc1cc2c3cc1Oc1cc(ccc1O)C[C@@H]1c4c(cc(OC)c(O)c4Oc4ccc(cc4)C[C@@H]3N(C)CC2)CC[N+]1(C)C` the figure was 179%.
For the compound `CCOC(=O)[C@H](CCc1ccccc1)N[C@@H](C)C(=O)N1Cc2ccccc2C[C@H]1C(=O)O` [quinapril], the percent viability is 166% and 396%.
With `CCCC(=O)Nc1ncnc2c1ncn2[C@@H]1O[C@@H]2COP(=O)(O)O[C@H]2[C@H]1OC(=O)CCC` the figure was 213%; with `Nc1ncnc2c1ncn2[C@@H]1O[C@H](COP(=O)(O)O)[C@@H](O)[C@H]1O` [adenosine phosphate], 198% and 178% and 195%.
With `CC(O)Cn1cnc2c1c(=O)n(C)c(=O)n2C` (stereo not given) [proxyphylline] the figure was 317%.
For the compound `CC(=O)Oc1cccc(C(=O)O)c1OC(C)=O` [dipyrocetyl], the percent viability is 249%.
Consider `OCCN1CCN(CCCN2c3ccccc3Sc3ccc(C(F)(F)F)cc32)CC1` [fluphenazine], for which the percent viability is 194% and 470%.
As for `C[C@H]1C[C@H]2[C@@H]3CCC4=CC(=O)C=C[C@]4(C)[C@H]3C(=O)C[C@]2(C)[C@@]1(O)C(=O)CO` [meprednisone], the percent viability is 137%.
`C=C[C@H]1CN2CC[C@H]1C[C@@H]2[C@@H](O)c1ccnc2ccc(OC)cc12`: the percent viability is 174% and 179%.
With `CCNCc1c(CSC)cnc(C)c1O` [tamitinol] the figure was 134%; with `O=C(O)Cc1ccc(CCNS(=O)(=O)c2ccc(Cl)cc2)cc1` [daltroban], 118%.
As for `CC[C@H]1OC(=O)C[C@@H](O)[C@H](C)[C@@H](O[C@@H]2O[C@H](C)C[C@H](N(C)C)[C@H]2O)[C@@H](CC=O)C[C@@H](C)C(=O)/C=C/[C@]2(C)O[C@H]2[C@@H]1C` [rosaramicin], the figure is 175%.
As for `Cc1c(C(=O)OCCO)[n+]([O-])c2ccccc2[n+]1[O-]` [temodox], the figure is 179%.
Regarding `NNCCc1ccccc1`, the percent viability was determined as 145%.
Take `CCCCN(CCCC)C(=O)CN1C[C@H](c2ccc3c(c2)OCO3)[C@@H](C(=O)O)[C@@H]1c1ccc(OC)cc1` [atrasentan]: the percent viability was 128%.
With `Cc1ccc(Cl)c(Nc2ccccc2C(=O)O)c1Cl` the figure was 238%; with `CCCn1c(=O)c2nc(C34CC5CC(CC3C5)C4)[nH]c2n(CCC)c1=O` [rolofylline], 64.3%; with `CC(C)OC(=O)C(C)(C)Oc1ccc(C(=O)c2ccc(Cl)cc2)cc1` [fenofibrate], 192% and 201%.
With `C[C@@H](O)[C@H](N)C(=O)O` [threonine] the figure was 234%; with `COc1cc(-c2ccc(=O)[nH]n2)ccc1OC(F)F` [zardaverine], 193%; with `O=c1cc[nH]c(=O)[nH]1`, 337%.
As for `Cn1cncc1[C@@](N)(c1ccc(Cl)cc1)c1ccc2c(c1)c(-c1cccc(Cl)c1)cc(=O)n2C` [tipifarnib], the figure is 178%; as for `CC(C)(CO)[C@@H](O)C(=O)NCCC(=O)O` [calcium pantothenate], 179%; as for `C[C@@H]1CCO[C@H]2Cn3cc(C(=O)NCc4ccc(F)cc4F)c(=O)c(O)c3C(=O)N12` [Dolutegravir], 91.1%.
In the case of `CCOc1ccc(C(=O)OCCN(CC)CC)cc1` [parethoxycaine], the percent viability came to 161%.
As for `CC(=O)O[C@]1(C(C)=O)CC[C@H]2[C@@H]3C[C@H](C)C4=CC(=O)CC[C@]4(C)[C@H]3CC[C@@]21C` [Medroxyprogesterone 17-Acetate], the figure is 209%; as for `C=C(c1ccc(C(=O)O)cc1)c1cc2c(cc1C)C(C)(C)CCC2(C)C` [bexarotene], 318%.
As to `CC(=O)Nc1ccc(OC(=O)c2ccccc2OC(C)=O)cc1` [benorilate], the percent viability was 128%.
As for `CCCC1([C@H](O)C/C=C/[C@H]2[C@H](O)CC(=O)[C@@H]2CCCCCCC(=O)OC)CCC1` [(R)-Butaprost], the figure is 134%.
Consider `CCOC(=O)C(C#N)=C(c1ccccc1)c1ccccc1` [etocrilene], for which the percent viability turned out to be 79.5%.
As for `CC(C)CCCC(C)NCCC(C)C` (stereo not given) [octamylamine], the figure is 174%.
As for `O=c1nc2cccccc-2n1Cc1ccccc1` [benhepazone], the figure is 154%; as for `NC(=O)N1c2ccccc2CC(=O)c2ccccc21` [oxcarbazepine], 348% and 243%; as for `CCOc1ccc2ccccc2c1C(=O)N[C@@H]1C(=O)N2[C@@H]1SC(C)(C)[C@@H]2C(=O)O` [Unipen], 124%.
With `C=CCSCC1Nc2cc(Cl)c(S(N)(=O)=O)cc2S(=O)(=O)N1` (stereo not given) [altizide] the figure was 192%.

The values are drawn from the supplement of paper PMC8256030.
